Laboratory results published in article doi:10.1101/050617.
Results are given in words; binding and its absence hold for the method and conditions named. For part of these data: In cells and extracts the contact can be indirect. Some results given as binding are weak or reduced against the parent protein; the word gives no strength.

Chains of the proteins cited; added tags and fusions are not shown. Lines headed by an entry give the natural chain unless they say otherwise; changes in a name come on top.
UniProt P00842: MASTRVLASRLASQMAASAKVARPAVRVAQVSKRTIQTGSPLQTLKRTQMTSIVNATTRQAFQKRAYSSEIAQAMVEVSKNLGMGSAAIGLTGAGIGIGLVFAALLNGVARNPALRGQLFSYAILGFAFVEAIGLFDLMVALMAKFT

Tests used:
[1] = target: Su9(86)-DHFR (Neurospora crassa | mouse) (UniProt P00842); test: filter retardation assay
[2] = target: Su9(86)-DHFR (Neurospora crassa | mouse) (UniProt P00842); test: co-sedimentation
[3] = target: ornithine carbamoyltransferase (OTC) precursor protein (UniProt P00480); test: filter retardation assay

Molecule: Su9(86)-DHFR (from UniProt P00842 1-86; P00375 1-187)
- binding [1]: binds weakly
- binding [2]: binds

B1: ornithine carbamoyltransferase (OTC) precursor protein (protein, UniProt P00480 1-354)
chain: MLFNLRILLNNAAFRNGHNFMVRNFRCGQPLQNKVQLKGRDLLTLKNFTGEEIKYMLWLSADLKFRIKQKGEYLPLLQGKSLGMIFEKRSTRTRLSTETGFALLGGHPCFLTTQDIHLGVNESLTDTARVLSSMADAVLARVYKQSDLDTLAKEASIPIINGLSDLYHPIQILADYLTLQEHYSSLKGLTLSWIGDGNNILHSIMMSAAKFGMHLQAATPKGYEPDASVTKLAEQYAKENGTKLLLTNDPLEAAHGGNVLITDTWISMGQEEEKKKRLQAFQGYQVTMKTAKVAASDWTFLHCLPRKPEEVDDEVFYSPRSLVFPEAENRKWTIMAVMVSLLTDYSPQLQKPKF
modifications: [35S]-methionine/cysteine label
- binding [3]: binds weakly
